Record: PubChem BioAssay AID652259 (Drosophila RNAi Screening Center, 2013)

- Purpose: 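Genome-wide hunt for genes that control Wingless pathway activity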 (primary screen)
- Cells: Drosophila clone 8 imaginal disc epithelial cells
- Knock-down reagent: long dsRNA against Drosophila genes
- Conditions: pathway stimulated by co-transfected Wingless expression plasmid
- Measured: 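Dual luciferase reads per well after Wingless plasmid stimulation: reporter firefly light and Renilla control light; activity is firefly divided by Renilla, a ratio not deposited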
- Direction: firefly reporter light: higher = more Wg reporter light, before normalisation; Renilla control light: higher = more transfected or surviving cells
- Hit rule: 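Strong candidates differ from their plate mean by at least two out of four per-plate statistical tests; weak candidates meet just one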
- Calls: active = candidate regulator (raises or lowers reporter); inactive = not a candidate
In all, the deposit lists about 22,000 reagents; this is an unselected part of those that have a named target and a result. Of all reagents, 233 (1.1%) are marked active. 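Light values are raw, unnormalised plate reads; the ratio scores behind the reporter calls were not deposited.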 The record does not give: the amount of reagent, the time to read-out, the dose of the treatment.

CG4914 → firefly reporter light, replicate 1: 4919; Renilla control light, replicate 1: 1850; Call: inactive
CG6614 → firefly reporter light, replicate 1: 5611; Renilla control light, replicate 1: 3164; Call: inactive
CG5273 → firefly reporter light, replicate 1: 19452; Renilla control light, replicate 1: 13296; Call: inactive
Uro → firefly reporter light, replicate 1: 3318; firefly reporter light, replicate 2: 8900; Renilla control light, replicate 1: 1808; Renilla control light, replicate 2: 4179; Call: inactive
CG10948 → firefly reporter light, replicate 1: 7648; Renilla control light, replicate 1: 3813; Call: inactive
CG15210 → firefly reporter light, replicate 1: 24069; Renilla control light, replicate 1: 10418; Call: inactive
CG34200 → firefly reporter light, replicate 1: 24368; Renilla control light, replicate 1: 12258; Call: inactive
TfIIA-S → reporter change call, replicate 1: Wg reporter activity lowered; firefly reporter light, replicate 1: 6252; Renilla control light, replicate 1: 10041; Call: active
CG17633 → firefly reporter light, replicate 1: 2134; firefly reporter light, replicate 2: 8121; Renilla control light, replicate 1: 705; Renilla control light, replicate 2: 2827; Call: inactive
CG8001 → firefly reporter light, replicate 1: 16864; Renilla control light, replicate 1: 5584; Call: inactive
CG12479 → firefly reporter light, replicate 1: 15936; Renilla control light, replicate 1: 7600; Call: inactive
CG16813 → firefly reporter light, replicate 1: 3328; firefly reporter light, replicate 2: 9316; Renilla control light, replicate 1: 1355; Renilla control light, replicate 2: 4284; Call: inactive

Look-ups from the list:
Under “firefly reporter light, replicate 1”, CG17633 is entered as 2134
CG4914, firefly reporter light, replicate 1 → 4919
